The target of this assay is T1, FLAG-tagged CLDN11-3F (claudin 11) (human) (UniProt O75508).
T1 sequence: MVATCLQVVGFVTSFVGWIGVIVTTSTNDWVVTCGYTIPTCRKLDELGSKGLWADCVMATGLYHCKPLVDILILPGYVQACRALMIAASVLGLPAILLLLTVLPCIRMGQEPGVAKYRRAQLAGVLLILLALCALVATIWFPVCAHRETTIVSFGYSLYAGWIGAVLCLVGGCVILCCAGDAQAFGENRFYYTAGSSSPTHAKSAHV
In words: affinity purification with mass spectrometry; TW02 cells transfected with FLAG-tagged CLDN11 or vector control, harvested after 48 h; cell extracts precipitated with FLAG M2 beads; SDS-PAGE lanes sliced, trypsin-digested, LC-MS/MS with spectral counting.

Amino acid sequences for entries named in this document (tags omitted).
UniProt P68363: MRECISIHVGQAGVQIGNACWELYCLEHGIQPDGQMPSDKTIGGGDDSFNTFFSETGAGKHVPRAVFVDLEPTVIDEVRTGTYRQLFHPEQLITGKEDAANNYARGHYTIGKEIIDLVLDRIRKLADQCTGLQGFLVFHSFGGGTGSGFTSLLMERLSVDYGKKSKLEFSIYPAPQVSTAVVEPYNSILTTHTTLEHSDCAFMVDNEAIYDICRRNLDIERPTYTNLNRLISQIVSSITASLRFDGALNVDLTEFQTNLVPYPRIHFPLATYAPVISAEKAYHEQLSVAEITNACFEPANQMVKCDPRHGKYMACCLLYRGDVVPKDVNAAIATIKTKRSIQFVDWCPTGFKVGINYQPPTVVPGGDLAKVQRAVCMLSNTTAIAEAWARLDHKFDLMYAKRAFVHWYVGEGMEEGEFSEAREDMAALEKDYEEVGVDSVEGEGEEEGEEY
UniProt Q13509: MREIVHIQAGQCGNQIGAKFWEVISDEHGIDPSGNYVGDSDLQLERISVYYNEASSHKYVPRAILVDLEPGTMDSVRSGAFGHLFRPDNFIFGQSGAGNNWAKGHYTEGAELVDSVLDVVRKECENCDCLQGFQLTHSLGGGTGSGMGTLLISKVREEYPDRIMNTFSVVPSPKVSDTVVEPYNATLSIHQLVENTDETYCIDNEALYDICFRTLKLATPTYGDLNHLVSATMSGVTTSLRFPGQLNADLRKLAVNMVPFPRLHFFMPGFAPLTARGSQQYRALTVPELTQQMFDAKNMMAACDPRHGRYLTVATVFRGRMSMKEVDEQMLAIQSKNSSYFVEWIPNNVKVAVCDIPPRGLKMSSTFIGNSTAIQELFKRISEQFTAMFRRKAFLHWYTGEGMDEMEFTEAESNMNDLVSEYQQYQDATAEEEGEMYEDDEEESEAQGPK

The text below walks through data of paper PMC5946489, “Inactivation of the tight junction gene CLDN11 by aberrant hypermethylation modulates tubulins polymerization and promotes cell migration in nasopharyngeal carcinoma”.

Results are given in words; binding and its absence hold for the method and conditions named. In cells and extracts the contact can be indirect. These calls come from enrichment with a bait or labelling near it, and not all partners need be listed. Sequences can lack the tags named with a protein.

For the substance “tubulin alpha-1B (TUBA1B) (from UniProt P68363 1-451)”, the binding result was “binds”.

Regarding “tubulin beta-3 (TUBB3) (from UniProt Q13509 1-450)”, the binding entry was “binds”.
